Source: PubChem BioAssay AID493014 (National Center for Advancing Translational Sciences (NCATS), 2011)
The whole screen tested about 340,000 compounds, of which about 170 (0.05%) were called active. The inconclusive results got no clear call from the source; some entries with a clear call stand among them for comparison. Calls follow the shape of the dose curve; as a rule, active = well fitted inhibition curve with a large enough effect in the signal ratio, with a control signal flat (not every such curve was filed as active); inconclusive = small, poorly fitted or top-dose-only effect, or effect the other way, or a change in a side signal; inactive = flat fitted curve, though single readings scatter; the % refers to the signal ratio. A potency beside an inconclusive call is a rough fit, not a confirmed value.

Assay: qHTS Assay to Find Inhibitors of Chronic Active B-Cell Receptor Signaling;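 as to activity change, negative = inhibition: plate controls were basal doxycycline-induced cells for no effect and cells given 10 µM MG132 for full effect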
Settings: ABC-DLBCL IkBa-CBG/CBR reporter, luminescence ratio (green luciferase fused to IkBa over red control in TMD8 lymphoma cells), 4 h; activity change, negative = inhibition: at 46.1 µM (top of the series)
In short: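 Concentration-response series (up to 46 uM) were applied to TMD8 dual-reporter cells for 4 h at 37C with doxycycline. Green/red ratio, after filter-overlap correction, defined %Activity; red signal alone was normalised to basal cells and zero luminescence.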
Potency is read from the fitted curve at half-maximal effect.

Row | SMILES | activity change, negative = inhibition | Potency
1 | O=C(OCn1nnc2ccccc2c1=O)C1COc2ccccc2O1 (stereo not drawn) | inconclusive: 4.29% | –
2 | Cc1ccc(-c2cc(-c3ccccc3)c(C#N)c(N)n2)o1 | inconclusive: 13% | –
3 | O=C(CCC1N=C2c3ccccc3N=C(SCc3ccc(Cl)cc3)N2C1=O)NCc1cccs1 (stereo not drawn) | inconclusive: -3.34% | –
4 | COCC(C)n1c(C)cc(C(=O)COC(=O)C2=NN(c3ccccc3)C(=O)CC2)c1C (stereo not drawn) | inconclusive: 6.31% | –
5 | Cc1nnc(SCC(=O)N2N=C(c3ccc(Cl)cc3)CC2c2ccco2)[nH]c1=O (stereo not drawn) | – | inconclusive: 7.94 µM [falling, partial curve, poor fit]
6 | CCSc1nnc(NC(=O)CSc2nnc(CNC(=O)c3cc(OC)c(OC)c(OC)c3)o2)s1 | inconclusive: 1.84% | –
7 | COc1ccc(OC)c(N(CC(=O)Nc2ccc3c(c2)OCO3)S(=O)(=O)c2ccccc2)c1 | inconclusive: 7.13% | –
8 | CN(C)c1cccc(C(=O)NNC(=O)C23CC4CC(CC(C4)C2)C3)c1 | inconclusive: 0.96% | –
9 | CCN(C(=O)c1cc2c(=O)[nH]c3ccc(C)cc3c2s1)c1ccccc1F | inactive: 7.25% | –
10 | COc1ccc(/C=C2/S/C(=N/N=C3\CC4CCC3(C)C4(C)C)NC2=O)cc1 (stereo not drawn) | inconclusive: 2.62% | –
11 | Cc1ccccc1Nc1nn2c(=O)c3ccc(C(=O)NCc4cccs4)cc3nc2s1 | – | inconclusive: 1.78 µM [falling, partial curve]
12 | COc1ccc(Oc2cc(C)c3cccc(C)c3n2)cc1 | – | inconclusive: 7.31 µM [rising, partial curve]
13 | COC(=O)CCN(C(=O)c1cc(OC)c(OC)c(OC)c1)c1ccccn1 | inconclusive: 29.5% | –
14 | Cc1ccc(CNC(=O)CO/N=C/c2ccc(C(C)(C)C)cc2)cc1 | inactive: -5.38% | –
15 | Cc1cccc(NC(=S)NCCSc2ccc(Cl)cc2)c1 | inconclusive: 19.3% | –
16 | COc1ccc(OC)c(C(=O)c2coc3ccc(OCC(=O)O)cc23)c1 | – | inconclusive: 23.1 µM [falling, partial curve, poor fit]
17 | S=c1[nH]nc(Cc2cccc3ccccc23)o1 | inconclusive: 9.16% | –
18 | Cc1cc(C(=O)OCC(=O)c2cccc([N+](=O)[O-])c2)c2cccc(C)c2n1 | inconclusive: 1.45% | –
19 | O=C(c1ccco1)N1CCn2cccc2C1c1ccccc1 (stereo not drawn) | inconclusive: 19.8% | –
20 | O=C1C=C(c2ccc(OC(F)(F)F)cc2)C[C@@H](c2ccc(Cl)cc2)C1 | inconclusive: 8.71% | –
21 | CC(C)Nc1nc(Cl)nc(N(C#N)CN2C(=O)c3ccccc3C2=O)n1 | inconclusive: -1.49% | –
22 | Cc1ccc2sc(N(CCCN(C)C)C(=O)c3ccc(Br)s3)nc2c1C | inconclusive: -10.2% | –
23 | COc1ccc(C(CNC(=O)c2oc3cc(C)c(C)cc3c2C)N2CCCCC2)cc1 (stereo not drawn) | inactive: 9.88% | –
24 | Cc1ccc(C(=O)N/N=C\c2ccc[nH]2)cc1[N+](=O)[O-] | – | inconclusive: 20 µM [falling, single point]
25 | CCOc1cc(/C=N\NC(=O)Cn2nc([N+](=O)[O-])cc2C)ccc1OCc1cccc2ccccc12 | inconclusive: -2.9% | –
26 | COc1ccc(-c2noc(-c3cc(C)cc(C)c3)n2)cc1OC | inconclusive: -2.22% | –

Row | SMILES | activity change, negative = inhibition | Potency
27 | COc1ccc(-c2nnc(SCC(=O)NC3CCCCC3)o2)cc1OC | inconclusive: 3.35% | –
28 | Cn1c(=O)c2c(n3cnnc13)-c1ccccc1CC21CCCC1 | inactive: 8.16% | –
29 | Cc1cccc(NCc2cccc3ccccc23)n1 | inconclusive: 0.929% | –
30 | CCCCSc1nc2c(cnn2-c2ccc(Cl)cc2)c(=O)[nH]1 | – | inconclusive: 29.1 µM [rising, single point]
31 | COc1ccc(-c2cc(=O)c3c(O)cc(O[C@@H]4O[C@H](CO[C@@H]5O[C@@H](C)[C@H](O)[C@@H](O)[C@H]5O)[C@@H](O)[C@H](O)[C@H]4O)cc3o2)cc1O | inconclusive: -2.23% | –
32 | COc1ccc2c(c1)-c1c(ssc1=S)C(C)(C)N2 | inactive: 7.89% | –
33 | O=S(=O)(c1ccccc1)N1c2cc(Cl)ccc2Oc2nc3ccccc3nc21 | inconclusive: 23.1% | –
34 | C=CCNC(=O)N1CCc2[nH]c3ccc(F)cc3c2C1 | inconclusive: -10.7% | –
35 | COc1ccc(Cc2nnc(SCc3ccc([N+](=O)[O-])cc3)o2)cc1 | inactive: -2.12% | –
36 | CC(Cc1ccccc1)NC(=O)c1cc([N+](=O)[O-])ccc1Cl (stereo not drawn) | inconclusive: 15.6% | –
37 | O=C(COc1ccc2ccc(=O)oc2c1)Nc1ccc(N2CCOCC2)cc1 | – | inconclusive: 29.1 µM [falling, partial curve, poor fit]
38 | COc1ccc(Cl)cc1NC(=O)COC(=O)c1cc(NS(=O)(=O)c2cccs2)ccc1O | inconclusive: 4.92% | –
39 | COc1ccc(N2C(=O)C3CC(C)=C(C)CC3C2=O)c(OC)c1 (stereo not drawn) | – | inconclusive: 2.31 µM [rising, partial curve]
40 | COc1ccc(N2Cc3ccccc3C2=O)cc1 | – | inconclusive: 20 µM [falling, partial curve, poor fit]
41 | COC(=O)CSc1nc2cc(OC)ccc2cc1C#N | inconclusive: 6.07% | –
42 | CCOc1ccc(/C=C2\SC(=S)N(CCC(=O)Nc3cccc(C(=O)O)c3)C2=O)cc1 | – | inconclusive: 10 µM [falling, partial curve]
43 | Cc1cc(C)c(S(=O)(=O)Cc2ccccc2)c(OC(C)C)n1 | inconclusive: 1.05% | –
44 | COc1ccc(/C=N/NC(=O)c2cccc([N+](=O)[O-])c2)cc1OS(=O)(=O)c1ccc(C)cc1 | inactive: 6.99% | –
45 | CNC(=S)N/N=C/c1ccc(OCc2ccccc2)c(Br)c1 | inconclusive: 0.734% | –
46 | COc1ccc(-c2cn3cccnc3n2)cc1NC(=O)C(C)C | – | inconclusive: 6.31 µM [falling, single point]
47 | CCc1nnc(NC(=O)CSc2ccc(-c3cccs3)nn2)s1 | inactive: 1.71% | –
48 | O=C(CNC(=O)c1cccs1)NCC(=O)OCc1cccc(Cl)c1 | inconclusive: 7.1% | –
49 | O=c1oc2ccccc2c(Nc2cccc3ccccc23)c1[N+](=O)[O-] | – | inconclusive: 8.91 µM [falling, partial curve, poor fit]
50 | O=[N+]([O-])c1ccc(NS(=O)(=O)c2cccc3cccnc23)cc1 | inconclusive: 16.3% | –
51 | CS(=O)(=O)c1ncc(Cl)c(C(=O)Nc2ccc3ccccc3c2)n1 | inconclusive: 21% | –
52 | CCC(=O)c1cn(CC(=O)Nc2cccc(OC)c2)c2ccccc12 | inactive: 3.33% | –

Look-ups from above.
`COc1ccc(-c2cc(=O)c3c(O)cc(O[C@@H]4O[C@H](CO[C@@H]5O[C@@H](C)[C@H](O)[C@@H](O)[C@H]5O)[C@@H](O)[C@H](O)[C@H]4O)cc3o2)cc1O` – activity change, negative = inhibition: inconclusive: -2.23%
`COc1ccc(-c2nnc(SCC(=O)NC3CCCCC3)o2)cc1OC` – activity change, negative = inhibition: inconclusive: 3.35%
`COc1ccc(/C=N/NC(=O)c2cccc([N+](=O)[O-])c2)cc1OS(=O)(=O)c1ccc(C)cc1` – activity change, negative = inhibition: inactive: 6.99%
`CNC(=S)N/N=C/c1ccc(OCc2ccccc2)c(Br)c1` – activity change, negative = inhibition: inconclusive: 0.734%
`CCCCSc1nc2c(cnn2-c2ccc(Cl)cc2)c(=O)[nH]1` – Potency: inconclusive: 29.1 µM [rising, single point]

The list goes on.

Row | SMILES | activity change, negative = inhibition | Potency
53 | N/C(=N\OC(=O)c1ccccc1)c1ccncc1 | – | inconclusive: 25.1 µM [falling, single point]
54 | O=[N+]([O-])c1ccc(-c2csc(N3CCCCCC3)n2)cc1 | inconclusive: 19.1% | –
55 | CCOc1cc(/C=C/c2ccc3cccc([N+](=O)[O-])c3n2)ccc1OCC(=O)N(C)C | – | inconclusive: 35.5 µM [falling, single point]
56 | COc1ccc(NC(=O)c2c(F)cccc2F)cc1S(=O)(=O)Nc1ccc(Br)cc1 | inconclusive: 5.26% | –
57 | CCn1c(Cc2ccccc2)n[nH]c1=S | inconclusive: 0.791% | –
58 | CCOc1ccc(CN2CCN(Cc3cc4c(cc3Cl)OCO4)CC2CCO)cc1 (stereo not drawn) | inactive: -7.67% | –
59 | Cc1nn2c(COc3ccc(NC(=O)C(C)C)cc3)nnc2c2ccccc12 | inconclusive: -15.7% | –
60 | COc1cccc(CC(=O)OC(C)C(=O)Nc2ncc(Cl)cc2Cl)c1 (stereo not drawn) | inconclusive: 11.4% | –
61 | CC(=O)Nc1ccc(S(=O)(=O)Nc2nnc(CC(C)(C)C)s2)cc1 | – | inconclusive: 10 µM [rising, partial curve]
62 | O=C(Nc1ccc(C(=O)O)cc1)/C(=C\c1cccc([N+](=O)[O-])c1)NC(=O)c1ccc(Br)o1 | – | inconclusive: 31.6 µM [rising, single point]
63 | C/C(=N\NC(=O)c1cc(-c2cccs2)nc2ccccc12)c1ccccn1 | – | inconclusive: 8.91 µM [falling, partial curve]
64 | O=C(NCc1ccccc1Br)c1cccc2c1C(=O)c1ccc(-c3ccc(OC(F)(F)F)cc3)cc1S2(=O)=O | inconclusive: 1.32% | –
65 | CCOc1ccccc1C(=O)N1CCC(n2nnc3cc(C)ccc32)CC1 | inactive: -0.645% | –
66 | CC1CCCCC12NC(=O)N(CC(=O)c1ccc[nH]1)C2=O (stereo not drawn) | inactive: 0.2% | –
67 | Cc1ccc(S(=O)(=O)N(C)c2ccc(C(=O)Nc3c(C)n(C)n(-c4ccccc4)c3=O)cc2)cc1 | inactive: -0.773% | –
68 | CCCCc1ccc(NS(=O)(=O)c2cc3c4c(c2)CC(=O)N4CCC3)cc1 | – | inconclusive: 3.98 µM [rising, single point]
69 | O=C(Nc1ccc([N+](=O)[O-])cc1)Nn1cnnc1 | inconclusive: 9.65% | –
70 | O=C(NCCCN1CCCCCC1)c1ccc2c(Cl)c3c(nc2c1)CCCC3 | inconclusive: -25.7% | –
71 | N#Cc1ccc(/C=C/C(=O)c2cccnc2)cc1 | inconclusive: 1.33% | –
72 | CCCCN(CCCC)S(=O)(=O)c1ccc(NS(=O)(=O)c2ccc(NC(C)=O)cc2)cc1 | – | inconclusive: 2.59 µM [rising, full curve, poor fit]
73 | FC(F)(F)c1cnc2c(-c3ccc(Cl)cc3Cl)noc2c1 | inconclusive: 0.328% | –
74 | COc1cccc(C(=O)/C(C#N)=N/Nc2cccc(-c3ccnc(C)n3)c2)c1 | inconclusive: 11% | –
75 | CC(C)c1ccc(NC2CCCN(C(=O)CCN3CCCCO3)C2)cc1 (stereo not drawn) | inconclusive: -0.0049% | –
76 | CN(Cc1ccc(C(F)(F)F)cc1)C(=O)c1ccc2ccccc2n1 | inconclusive: -0.843% | –
77 | COc1ccc(S(=O)(=O)Nc2ccc3c(c2)n(C)c(=O)n3C)cc1 | inconclusive: -14.2% | –
78 | COc1ccc(Br)c(-c2nnc(CS(=O)(=O)c3ccccc3)o2)c1 | inconclusive: 4.16% | –
